# The inconclusive results got no clear call from the source; some entries with a clear call stand among them for comparison. For some assays here: Potencies of inconclusive entries are doubtful fits and often do not repeat. The source made the active and inactive calls. Unless noted, the call rests on the fitted dose curve; in most records, active means well fitted curve in the direction sought with a large enough effect; inconclusive means small, poorly fitted or top-dose-only effect, or another doubt; inactive means no such curve, though single readings can be large; an effect the other way counts as inactive or inconclusive.
# Chains of the proteins cited; added tags and fusions are not shown. Lines headed by an entry give the natural chain unless they say otherwise; changes in a name come on top.
# UniProt P15289: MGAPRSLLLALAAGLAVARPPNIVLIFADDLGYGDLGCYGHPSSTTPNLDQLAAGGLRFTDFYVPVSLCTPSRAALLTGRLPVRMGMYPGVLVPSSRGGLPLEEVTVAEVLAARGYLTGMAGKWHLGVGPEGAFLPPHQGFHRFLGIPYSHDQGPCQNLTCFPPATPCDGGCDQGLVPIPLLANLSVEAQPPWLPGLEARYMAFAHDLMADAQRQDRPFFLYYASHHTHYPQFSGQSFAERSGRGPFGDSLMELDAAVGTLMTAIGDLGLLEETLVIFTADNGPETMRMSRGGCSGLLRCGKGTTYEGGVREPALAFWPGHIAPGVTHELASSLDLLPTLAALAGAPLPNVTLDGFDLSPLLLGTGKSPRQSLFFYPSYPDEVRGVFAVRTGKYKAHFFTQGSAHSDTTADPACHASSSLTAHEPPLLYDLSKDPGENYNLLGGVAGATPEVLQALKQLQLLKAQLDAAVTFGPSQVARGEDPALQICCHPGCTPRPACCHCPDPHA
# UniProt P10635, whole entry, looked up: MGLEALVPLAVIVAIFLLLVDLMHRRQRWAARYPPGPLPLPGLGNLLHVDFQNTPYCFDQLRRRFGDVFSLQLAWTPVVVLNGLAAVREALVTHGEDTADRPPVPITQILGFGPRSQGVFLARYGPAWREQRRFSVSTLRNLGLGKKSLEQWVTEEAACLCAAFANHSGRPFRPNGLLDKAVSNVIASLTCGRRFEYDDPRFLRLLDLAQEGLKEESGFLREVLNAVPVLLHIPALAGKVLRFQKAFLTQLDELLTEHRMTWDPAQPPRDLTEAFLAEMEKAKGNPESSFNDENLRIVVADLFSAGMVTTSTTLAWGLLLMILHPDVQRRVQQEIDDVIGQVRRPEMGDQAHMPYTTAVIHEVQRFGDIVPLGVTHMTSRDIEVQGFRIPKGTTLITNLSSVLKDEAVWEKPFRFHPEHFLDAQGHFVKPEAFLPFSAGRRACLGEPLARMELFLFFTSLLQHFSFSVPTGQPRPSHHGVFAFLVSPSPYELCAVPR
# How the values were obtained:
# [1] = Quantitative High-Throughput drug screen in 47 multiple myeloma cell lines against the NCATS MIPE library collection: Delta47_JCRB cell viability assay (AID 1918925; further: nearly all actives have a fitted effect of over 45% in size; further: potency means the concentration at half of the fitted maximal effect)
# Summary of the method: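 Myeloma cell lines, 500 cells per well, exposed to MIPE 4.0 library compounds for 48 h at 37C, 5% CO2. Viability from ATP by CellTiter-Glo luminescence; normalised to DMSO (100%) and media-only (0%) wells.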
# [2] = Quantitative High-Throughput drug screen in 47 multiple myeloma cell lines against the NCATS MIPE library collection: Karpas620_DSMZ cell viability assay (AID 1918959); further: nearly all actives have a fitted effect of over 30% in size; further: potency means the concentration at half of the fitted maximal effect
# Summary of the method: (§1)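 Relative luminescence from CellTiter-Glo served as the viability signal, referenced to DMSO-treated (100%) and cell-free medium (0%) controls. Treatment lasted 48 hours at 37C with 500 cells per well.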
# [3] = Quantitative High-Throughput drug screen in 47 multiple myeloma cell lines against the NCATS MIPE library collection: Karpas417_ECACC cell viability assay (AID 1918961); further: potency means the concentration at half of the fitted maximal effect
# Summary of the method: as §1
# [4] = Quantitative High-Throughput drug screen in 47 multiple myeloma cell lines against the NCATS MIPE library collection: KMS12BM_JCRB cell viability assay (AID 1918971); further: nearly all actives have a fitted effect of over 35% in size; further: potency means the concentration at half of the fitted maximal effect
# Summary of the method: (§2)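 Myeloma cells (500 per well) were exposed to MIPE 4.0 compounds by pin transfer and incubated 48 hours at 37C, 5% CO2. Viability was read as ATP by CellTiter-Glo luminescence, normalised to DMSO (100%) and media-only (0%) wells.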
# [5] = Quantitative High-Throughput drug screen in 47 multiple myeloma cell lines against the NCATS MIPE library collection: KMS26_JCRB cell viability assay (AID 1918975); further: nearly all actives have a fitted effect of over 45% in size; further: potency means the concentration at half of the fitted maximal effect
# Summary of the method: as §2
# [6] = Quantitative High-Throughput drug screen in 47 multiple myeloma cell lines against the NCATS MIPE library collection: MOLP8_DSMZ cell viability assay (AID 1918977); further: nearly all actives have a fitted effect of over 45% in size; further: potency means the concentration at half of the fitted maximal effect
# Summary of the method: (§3)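 Readout: median RLU from CellTiter-Glo after 5 min at room temperature. Preceding step was 48 h drug treatment of 500 cells/well at 37 °C, 5% CO2, with DMSO-only and media-only control wells.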
# [7] = Quantitative High-Throughput drug screen in 47 multiple myeloma cell lines against the NCATS MIPE library collection: KMS34_JCRB cell viability assay (AID 1918985); further: nearly all actives have a fitted effect of over 40% in size; further: potency means the concentration at half of the fitted maximal effect
# Summary of the method: as §3
# [8] = Quantitative High-Throughput drug screen in 47 multiple myeloma cell lines against the NCATS MIPE library collection: OCIMY5_PLB cell viability assay (AID 1918988); further: nearly all actives have a fitted effect of over 65% in size; further: potency means the concentration at half of the fitted maximal effect
# Summary of the method: as §3
# [9] = Quantitative High-Throughput drug screen in 47 multiple myeloma cell lines against the NCATS MIPE library collection: SKMM1_PLB cell viability assay (AID 1919863); conditions: SKMM1 myeloma viability, CellTiter-Glo ATP, 48 h; viability: stronger effect = lower value; further: nearly all actives have a fitted effect of over 35% in size; further: potency means the concentration at half of the fitted maximal effect
# Summary of the method: as §3
# [10] = Quantitative High-Throughput drug screen in 47 multiple myeloma cell lines against the NCATS MIPE library collection: PCM6_Riken cell viability assay (AID 1919870); further: nearly all actives have a fitted effect of over 30% in size; further: potency means the concentration at half of the fitted maximal effect
# Summary of the method: as §3
# [11] = target: Arylsulfatase A (Homo sapiens) (UniProt P15289); experiment: qHTS screen for enhancers of Arylsulfatase A (ASA1): LOPAC Validation Assay (AID 720538); conditions: activity change, positive = activation: at 57.5 µM (top of the series); further: potency means the concentration at half of the fitted maximal effect
# Summary of the method: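 SV40-transformed fibroblasts from an MLD patient (ASA-I179S) were treated with compound for 48 h at 37 C. They were then lysed with 0.5 mM pNCS substrate (final) for 14 h at room temperature and stopped with NaOH; signal read by fluorescence (Ex 525/Em 598 nm), with increase denoting enhanced activity.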
# [12] = qHTS Assay for Identifying Gametocytocidal Compounds (AID 743244); further: potency means the concentration at half of the fitted maximal effect;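 on max response: on the % scale 0 is the no-effect control and ±100 the full control effect; actives lower the fluorescent signal which means gametocytes are killed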; conditions: P. falciparum 3D7 stage III-V gametocytes, alamarBlue, 72 h; max response: stronger effect = lower value
# Summary of the method: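 Viability read-out was resazurin reduction (alamarBlue, 24 h) measured at Ex 525/Em 598 nm. Beforehand, late-stage (III-V) 3D7 P. falciparum gametocytes at 20,000 cells/well were incubated with compound 72 h at 37C under 5% CO2.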
# [13] = qHTS of pediatric cancer cell lines to identify multiple opportunities for drug repurposing: Primary screen for DAOY cells (AID 1347090); further: nearly all actives have a fitted effect of over 55% in size; further: potency means the concentration at half of the fitted maximal effect
# Summary of the method: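 Eight- or eleven-point concentration series, 48 h treatment at 37 degrees C in growth media; readout CellTiter-Glo luminescence. Potency and efficacy were taken from the concentration-response curves.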
# [14] = qHTS of pediatric cancer cell lines to identify multiple opportunities for drug repurposing: Primary screen for SK-N-SH cells (AID 1347098);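 further: DMSO served as neutral control and bortezomib at 2.3 µM as positive control; on the % scale 0 is the no-effect control and ±100 the full control effect; nearly all actives have a fitted effect of over 65% in size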
# Summary of the method: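 Cells (500-1,000/well) rested 5 h, then received compounds for 48 h; metabolically active cells were measured by CellTiter-Glo luminescence. Final concentrations spanned up to 46 µM (MIPE, 11-point) or 0.59 nM-46 µM (NPC, 8-point) in primary screens, 11-point in follow-ups.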
# DIV14 = experiment: qHTS profiling for inhibitors of Plasmodium falciparum proliferation (AID 504749); further: potency means the concentration at half of the fitted maximal effect; nearly all actives have a fitted effect of over 60% in size; conditions: P. falciparum in erythrocytes, SYBR Green DNA, 72 h; series mostly up to 28.7 µM
# Summary of the method: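 Fluorescence of SYBR Green-bound parasite DNA, read at 485/535 nm, served as the growth measure. Infected erythrocytes were cultured with compound 72 h; artemisinin (0.29 uM) and DMSO wells defined the normalization range.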
# [15] = Quantitative High-Throughput drug screen in 47 multiple myeloma cell lines against the NCATS MIPE library collection: KMS11_JCRBsus cell viability assay (AID 1919873); further: nearly all actives have a fitted effect of over 50% in size; further: potency means the concentration at half of the fitted maximal effect
# Summary of the method: as §3
# [16] = target: Cytochrome P450 2D6 (Homo sapiens) (UniProt P10635); experiment: Cytochrome P450 family 2 subfamily D member 6 (CYP2D6) small molecule antagonists: luciferase biochemical (cell-free) qHTS assay (AID 1645840; active means well fitted curve in the direction sought with a large enough effect in the repeat runs; inconclusive means weak or mixed curves; inactive means no such curve, though single readings can be large; an effect the other way counts as inactive or inconclusive; further: on the % scale 0 is the no-effect control and ±100 the full control effect; nearly all actives have a fitted effect of over 55% in size)
# Summary of the method: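 P450-Glo CYP2D6 system: proluciferin substrate converted by enzyme to luciferin, read by luminescence proportional to activity. Enzyme-substrate mix with compound 10 min at room temperature, then NADPH regeneration 1 h before detection reagent.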
# [17] = NFAT Signaling Pathway (AID 444; active means well fitted curve in either direction with a large enough effect, not every such curve was filed as active; inconclusive means small, poorly fitted or top-dose-only effect, or another doubt;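 further: carbachol stimulus at about its EC50 of 1 µM final; on the % scale 0 is the no-effect control and ±100 the full control effect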); conditions: Jurkat NFAT-bla M1, carbachol, beta-lactamase ratio, 5 h; at 7.69 µM (top of the series) unless noted
# Summary of the method: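 Jurkat cells carrying an NFAT-driven β-lactamase reporter and co-transfected muscarinic M1 receptor were treated with compound plus carbachol (1 uM final, an EC50 level) for 5 h at 37 °C. CCF4 loading followed for 1 h at RT; 460/530 nm ratio gave %activity.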
# [18] = qHTS for differential inhibitors of proliferation of Plasmodium falciparum line GB4 (AID 1816); conditions: Potency: Plasmodium falciparum GB4 proliferation inhibition;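 further: potency means the concentration at half of the fitted maximal effect; parasite growth measured after 72 h incubation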
smiles,measurement,setting,value
O=c1ccn([C@@H]2O[C@H](CO)[C@H](O)[C@@H]2F)c(=O)[nH]1,Potency,[1],"inconclusive: 11.8 µM [cytotoxic, single point]"
same,Potency,[2],inactive
same,Potency,[3],inactive
same,Potency,[4],"inconclusive: 0.0074 µM [cytotoxic, full curve, poor fit]"
same,Potency,[5],inactive
same,Potency,[6],inactive
same,Potency,[7],inactive
same,Potency,[8],inactive
same,viability,[9],inactive: 118%
same,Potency,[10],"inconclusive: 11.8 µM [cytotoxic, single point]"
Nc1nc(Cl)nc2c1ncn2[C@@H]1O[C@H](CO)[C@@H](O)[C@H]1O,Potency,[11],inactive
same,max response,[12],inactive: 6.66%
O=C(c1ccccc1)C(O)c1ccccc1 (centres undefined),Potency,[13],inactive
same,Potency,[14],inactive
same,Potency,DIV14,"inconclusive: 8.49 µM [inhibitor, partial curve]"
C[C@]12CCC3=C4CCC(=O)C=C4CC[C@@H]3[C@H]1CC[C@@]2(O)CC#N,Potency,[1],inactive
same,Potency,[2],"inconclusive: 23.5 µM [cytotoxic, partial curve]"
same,Potency,[4],"inconclusive: 0.148 µM [rising, full curve, poor fit]"
same,Potency,[6],"inconclusive: 0.0053 µM [rising, full curve, poor fit]"
same,Potency,[7],"inconclusive: 10.5 µM [rising, single point]"
same,Potency,[8],"inconclusive: 0.209 µM [rising, full curve, poor fit]"
same,viability,[9],inactive: 162%
same,Potency,[10],"inconclusive: 0.0012 µM [rising, full curve, poor fit]"
same,Potency,[15],"inconclusive: 20.9 µM [cytotoxic, partial curve, poor fit]"
CC(C)NC(=O)c1ccc(C=O)cc1,Potency,[16],inactive
CC(C)C(=O)OCc1cccc(OC(=O)[C@@H]2N3C(=O)[C@@H](NC(=O)Cc4ccccc4)[C@H]3SC2(C)C)c1,Potency,[14],inactive
C=CCN1C[C@H](C(=O)N(CCCN(C)C)C(=O)NCC)C[C@@H]2c3cccc4[nH]cc(c34)C[C@H]21,Potency,[12],"inconclusive: 17.8 µM [inhibitor, single point]"
CC(=O)O[C@H]1C[C@@H]2CC[C@H]3[C@H]4C[C@H]([N+]5(C)CCCCC5)[C@@H](OC(C)=O)[C@@]4(C)CC[C@@H]3[C@@]2(C)C[C@H]1N1CCCCC1,Potency,[13],"inconclusive: 29.6 µM [cytotoxic, single point]"
same,Potency,[1],inactive
same,Potency,[2],"inconclusive: 4.69 µM [cytotoxic, partial curve, poor fit]"
same,Potency,[3],inactive
same,Potency,[4],inactive
same,Potency,[7],"inconclusive: 37.2 µM [rising, partial curve, poor fit]"
same,Potency,[8],"inconclusive: 0.0013 µM [cytotoxic, full curve, poor fit]"
CC(=O)OCC(=O)[C@@]1(O)CC[C@H]2[C@@H]3CCC4=CC(=O)CC[C@]4(C)[C@@H]3C(=O)C[C@@]21C,Potency,[3],"inconclusive: 37.2 µM [cytotoxic, single point]"
same,Potency,[5],inactive
same,Potency,[6],inactive
same,Potency,[8],inactive
same,Potency,[10],inactive
same,Potency,[15],inconclusive: 0.001 µM
C[C@H]1C[C@@H]2[C@H]([C@@H](O)C[C@@]3(C)[C@H]2CC[C@]3(O)C(=O)CO)[C@@]2(C)C=CC(=O)C=C12,"activity change, negative = inhibition",[17],inactive: 17.5% [at 17.2 µM]
Nc1ncnc2c1nc(Sc1ccc(Cl)cc1)n2[C@H]1OC2COP(=O)(O)O[C@@H]2C1O (some centres undefined),Potency,[11],"inconclusive: 2.13 µM [activator, partial curve, poor fit]"
N#CC1(c2ccc(F)cc2)CCC(=O)CC1,Potency,[14],inactive
Nc1nc2c(cnn2CCc2ccccc2)c2nc(-c3ccco3)nn12,Potency,[11],"inconclusive: 5.36 µM [activator, partial curve, poor fit]"
Cc1cccc(C(=O)NCN2CCN(c3ccccc3C#N)CC2)c1,Potency,[18],"inconclusive: 12.6 µM [inhibitor, single point]"
C[Se]CCC(N)C(=O)O (centres undefined),Potency,[13],inactive
same,Potency,[1],inactive
same,Potency,[2],"inconclusive: 0.027 µM [cytotoxic, full curve, poor fit]"
same,Potency,[3],inactive
same,Potency,[4],inactive
same,Potency,[5],"inconclusive: 17.1 µM [cytotoxic, single point]"
same,Potency,[6],inactive
same,Potency,[7],"inconclusive: 17.1 µM [cytotoxic, full curve, poor fit]"
same,Potency,[8],"inconclusive: 2.41 µM [cytotoxic, full curve, poor fit]"
same,Potency,[9],"inconclusive: 54 µM [cytotoxic, single point]"
same,Potency,[10],"inconclusive: 0.0086 µM [rising, full curve, poor fit]"
same,Potency,[15],inactive
COc1cc2c(cc1OC)C(=O)CC2,Potency,[13],inactive
same,Potency,[16],inactive

# Part of the list above, reformatted.
smiles | measurement | setting | value
C[C@]12CCC3=C4CCC(=O)C=C4CC[C@@H]3[C@H]1CC[C@@]2(O)CC#N | Potency | [4] | inconclusive: 0.148 µM [rising, full curve, poor fit]
same | Potency | [6] | inconclusive: 0.0053 µM [rising, full curve, poor fit]
same | Potency | [7] | inconclusive: 10.5 µM [rising, single point]
